# For some assays here: The comparison behind a weaker result is the experiment's own reference, which may not be listed here. For some assays here: Construct, isoform or probe ends are uncertain for at least one entry. For some assays here: At least one result comes from cells or an extract, where the contact may be indirect.
# Chains of the proteins cited; added tags and fusions are not shown.
# UniProt Q15365, whole entry A205V: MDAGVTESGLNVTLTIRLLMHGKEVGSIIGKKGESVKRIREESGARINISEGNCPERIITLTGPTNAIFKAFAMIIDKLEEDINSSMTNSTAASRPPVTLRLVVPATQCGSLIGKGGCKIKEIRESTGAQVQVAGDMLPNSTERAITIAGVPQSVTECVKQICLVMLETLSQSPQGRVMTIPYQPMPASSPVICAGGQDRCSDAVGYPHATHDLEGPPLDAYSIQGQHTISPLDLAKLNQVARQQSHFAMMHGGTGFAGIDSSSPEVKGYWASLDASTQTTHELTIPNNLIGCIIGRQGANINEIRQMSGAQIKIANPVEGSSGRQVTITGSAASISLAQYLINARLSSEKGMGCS
# Key:
# [1] = biological target: hnRNP-E1 (PCBP1) wild-type (Homo sapiens) (UniProt Q15365); assay: EMSA; conditions: 15 uM L-homocysteine; mutations 1 to 5 progressively quenched signal; purified recombinant protein; protein details: GST fusion (pGEX-4T-1, E. coli BL21); variant of 25-nt hnRNP-E1 mRNA 5'-UTR cis-element
# [2] = biological target: hnRNP-E1 (PCBP1) endogenous (Homo sapiens) (UniProt Q15365); assay: pull-down; conditions: protein in cells; protein details: endogenous in placental 1584 cells; label: 35S
# [3] = biological target: hnRNP-E1 (PCBP1) wild-type (Homo sapiens) (UniProt Q15365); assay: binding assay; conditions: purified recombinant protein, protein details: GST fusion (pGEX-4T-1, E. coli BL21), label: 35S
sequence,measurement,setting,value
CUUCCGCCCGCUUCCGCUCGCUCCC [25-nt cis-element mutation 4],binding result,[1],binds more weakly
CUUCCGCCCGCUCCCGCUCGCUCCC [25-nt cis-element mutation 1],binding result,[1],binds more weakly
CUCCCGCCCGCUCCCGCUCGCUUCC [25-nt cis-element mutation 3],binding result,[1],binds more weakly
CUCCCGCCCGCUUCCGCUCGCUCCC [25-nt cis-element mutation 2],binding result,[1],binds more weakly
CUCCCGCCCGCUUCCGCUCGCUUCC [25-nt cis-element mutation 5],binding result,[1],binds more weakly
CUCCCGCCCGCUCCCGCUCGCUCCC [25-nt hnRNP-E1 mRNA 5'-UTR cis-element],binding result,[2],binds
same,Kd,"[3]; 10 uM L-homocysteine, Scatchard",1.14 nM
same,Kd,"[3]; 25 uM L-homocysteine, 5 uM iron(II)",3.72 nM
same,Kd,"[3]; 25 uM L-homocysteine, 25 uM iron(II)",6.5 nM
same,Kd,"[3]; 25 uM L-homocysteine, no iron(II)",2.74 nM
same,Kd,"[3]; 50 uM L-homocysteine, Scatchard",0.62 nM
same,Kd,[3]; 10 mM glutathione + 15 uM L-cysteine,2.38 nM
same,Kd,[3]; 10 mM glutathione + 15 uM L-homocysteine,1.18 nM
same,Kd,"[3]; no L-homocysteine, Scatchard, no gel-shift signal in this condition (FIG. 1B)",1.93 nM
